# Experimental data from ChEMBL document CHEMBL4316593 (Eur J Med Chem, 2019).
# Further values from the same series stand in other lists.
# Legend:
# Format in all cases: cell-based
# Details in all cases: U-87MG ATCC
# [1] = Inhibition of RTK/PI3K/AKT/mTOR signaling in human U87 cells assessed as down regulation of IFIT5 gene expression at cytotoxic IC50 measured after 48 hrs relative to control
# [2] = Inhibition of RTK/PI3K/AKT/mTOR signaling in human U87 cells assessed as down regulation of WDR26 gene expression at cytotoxic IC50 measured after 48 hrs relative to control
# [3] = Inhibition of RTK/PI3K/AKT/mTOR signaling in human U87 cells assessed as down regulation of ARC gene expression at cytotoxic IC50 measured after 48 hrs relative to control
# [4] = Inhibition of RTK/PI3K/AKT/mTOR signaling in human U87 cells assessed as down regulation of UBA1 gene expression at cytotoxic IC50 measured after 48 hrs relative to control
# [5] = Inhibition of RTK/PI3K/AKT/mTOR signaling in human U87 cells assessed as up regulation of IKBKB interacting protein gene expression at cytotoxic IC50 measured after 48 hrs relative to control
# [6] = Inhibition of RTK/PI3K/AKT/mTOR signaling in human U87 cells assessed as up regulation of HSPG2 gene expression at cytotoxic IC50 measured after 48 hrs relative to control
# [7] = Inhibition of RTK/PI3K/AKT/mTOR signaling in human U87 cells assessed as down regulation of SMC1A gene expression at cytotoxic IC50 measured after 48 hrs relative to control
# [8] = Inhibition of RTK/PI3K/AKT/mTOR signaling in human U87 cells assessed as up regulation of coiled-coil domain containing 88C gene expression at cytotoxic IC50 measured after 48 hrs relative to control
# [9] = Inhibition of RTK/PI3K/AKT/mTOR signaling in human U87 cells assessed as up regulation of glycogen synthase 1 gene expression at cytotoxic IC50 measured after 48 hrs relative to control
# [10] = Inhibition of RTK/PI3K/AKT/mTOR signaling in human U87 cells assessed as down regulation of GK5 gene expression at cytotoxic IC50 measured after 48 hrs relative to control
# [11] = Inhibition of RTK/PI3K/AKT/mTOR signaling in human U87 cells assessed as down regulation of SLBP gene expression at cytotoxic IC50 measured after 48 hrs relative to control
# [12] = Inhibition of RTK/PI3K/AKT/mTOR signaling in human U87 cells assessed as up regulation of NUS1 dehydrodolichyl diphosphate synthase subunit gene expression at cytotoxic IC50 measured after 48 hrs relative to control
# [13] = Inhibition of RTK/PI3K/AKT/mTOR signaling in human U87 cells assessed as down regulation of HSPH1 gene expression at cytotoxic IC50 measured after 48 hrs relative to control
# [14] = Inhibition of RTK/PI3K/AKT/mTOR signaling in human U87 cells assessed as down regulation of SPRTN gene expression at cytotoxic IC50 measured after 48 hrs relative to control
# [15] = Inhibition of RTK/PI3K/AKT/mTOR signaling in human U87 cells assessed as up regulation of ATP binding cassette subfamily C member 1 gene expression at cytotoxic IC50 measured after 48 hrs relative to control
# [16] = Inhibition of RTK/PI3K/AKT/mTOR signaling in human U87 cells assessed as down regulation of PMM1 gene expression at cytotoxic IC50 measured after 48 hrs relative to control
# [17] = Inhibition of RTK/PI3K/AKT/mTOR signaling in human U87 cells assessed as down regulation of CPNE3 gene expression at cytotoxic IC50 measured after 48 hrs relative to control
# [18] = Inhibition of RTK/PI3K/AKT/mTOR signaling in human U87 cells assessed as up regulation of serine/threonine kinase 39 gene expression at cytotoxic IC50 measured after 48 hrs relative to control
# [19] = Inhibition of RTK/PI3K/AKT/mTOR signaling in human U87 cells assessed as up regulation of caveolin 2 gene expression at cytotoxic IC50 measured after 48 hrs relative to control
# [20] = Inhibition of RTK/PI3K/AKT/mTOR signaling in human U87 cells assessed as up regulation of ADAMTS14 gene expression at cytotoxic IC50 measured after 48 hrs relative to control
# [21] = Inhibition of RTK/PI3K/AKT/mTOR signaling in human U87 cells assessed as up regulation of UBE2G2 gene expression at cytotoxic IC50 measured after 48 hrs relative to control
# [22] = Inhibition of RTK/PI3K/AKT/mTOR signaling in human U87 cells assessed as down regulation of FEM1B gene expression at cytotoxic IC50 measured after 48 hrs relative to control
# [23] = Inhibition of RTK/PI3K/AKT/mTOR signaling in human U87 cells assessed as down regulation of DNAJA1 gene expression at cytotoxic IC50 measured after 48 hrs relative to control
# [24] = Inhibition of RTK/PI3K/AKT/mTOR signaling in human U87 cells assessed as down regulation of KIF5B gene expression at cytotoxic IC50 measured after 48 hrs relative to control
# [25] = Inhibition of RTK/PI3K/AKT/mTOR signaling in human U87 cells assessed as up regulation of MMS19 homolog, cytosolic iron-sulfur assembly component gene expression at cytotoxic IC50 measured after 48 hrs relative to control
# [26] = Inhibition of RTK/PI3K/AKT/mTOR signaling in human U87 cells assessed as down regulation of PPID gene expression at cytotoxic IC50 measured after 48 hrs relative to control
# [27] = Inhibition of RTK/PI3K/AKT/mTOR signaling in human U87 cells assessed as up regulation of solute carrier family 39 member 1 gene expression at cytotoxic IC50 measured after 48 hrs relative to control
# [28] = Inhibition of RTK/PI3K/AKT/mTOR signaling in human U87 cells assessed as up regulation of LCN2 gene expression at cytotoxic IC50 measured after 48 hrs relative to control
# [29] = Inhibition of RTK/PI3K/AKT/mTOR signaling in human U87 cells assessed as up regulation of solute carrier family 6 member 9 gene expression at cytotoxic IC50 measured after 48 hrs relative to control
# [30] = Inhibition of RTK/PI3K/AKT/mTOR signaling in human U87 cells assessed as up regulation of regulator of G-protein signaling 16 gene expression at cytotoxic IC50 measured after 48 hrs relative to control
# [31] = Inhibition of RTK/PI3K/AKT/mTOR signaling in human U87 cells assessed as up regulation of semaphorin 4C gene expression at cytotoxic IC50 measured after 48 hrs relative to control
# [32] = Inhibition of RTK/PI3K/AKT/mTOR signaling in human U87 cells assessed as up regulation of chromosome 11 open reading frame 1 gene expression at cytotoxic IC50 measured after 48 hrs relative to control
compound,measurement,setting,value
CC(=O)C(=NNc1ccccc1C#N)C(C)=O,log2FC,[1],-0.77
same,log2FC,[2],-0.786
same,log2FC,[3],-3.35
same,log2FC,[4],-0.542
same,log2FC,[5],0.864
same,log2FC,[6],0.601
same,log2FC,[7],-0.449
same,log2FC,[8],0.78
same,log2FC,[9],1.04
same,log2FC,[10],-0.914
same,log2FC,[11],-0.543
same,log2FC,[12],0.792
same,log2FC,[13],-3.63
same,log2FC,[14],-1.16
same,log2FC,[15],0.782
same,log2FC,[16],-0.732
same,log2FC,[17],-0.392
same,log2FC,[18],1.1
same,log2FC,[19],0.78
same,log2FC,[20],2
same,log2FC,[21],0.594
same,log2FC,[22],-0.657
same,log2FC,[23],-1.08
same,log2FC,[24],-0.452
same,log2FC,[25],0.745
same,log2FC,[26],-0.71
same,log2FC,[27],0.684
same,log2FC,[28],2.66
same,log2FC,[29],0.954
same,log2FC,[30],0.843
same,log2FC,[31],1.1
same,log2FC,[32],1.07
